# Results of single-concentration screens

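Phenotypic screen: M. tuberculosis growth, cholesterol and DPPC medium, 4 days; the read-out is not stated. Concentration: 500 µM. The record gives no direction; compounds that gave an IC50 in retests scored well above the rest, so higher reads as more growth inhibition. Of about 18,000 compounds tested this way, about 900 (5%) reached 50% or more in at least one test.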

Results are given as percent effect. The record does not define 0% and 100%; most values in the screen are far below 50% and negative numbers occur (in some assays of this library far below -100). This is an unselected part of the compounds tested.

Result for CCOc1ccccc1-n1c(CCN)n[nH]c1=O was -2.279%.
Result for COc1cc(OC)cc(-c2[nH][nH]c(=O)c2CCN)c1 was 21.11%.
Result for CN(C)CCc1ccc(CN)cc1 was -4.701%.
Result for COCC(C)(NCc1ccc(F)cc1)C(=O)OC (stereo not drawn) was 4.769%.
Result for O=C(CCc1cc(F)ccc1Br)N1CC[S+]([O-])CC1 was 24.27%.
Result for CC1c2ccsc2CCN1CCS(C)(=O)=O (stereo not drawn) was 43.11%.
Result for CC(=O)c1ccc(C(F)F)nc1 was 10.56%.
Result for CC(=O)NC(CC(=O)Nc1ccccn1)c1cccs1 (stereo not drawn) was 1.022%.
Result for O=C(CSCc1ccco1)Nc1ccncc1 was -2.147%.
Result for Cc1nc(=N)cc[nH]1 was 11.35%.
Result for Cn1nc2n(c1=O)CCN(Cc1ccc(Br)o1)CC2 was -16.73%.
Result for CC(C)(C)N(CCS(C)(=O)=O)C(=O)c1ccncc1F was -5.925%.
Result for OC(CN1CCn2ccnc2C1)c1cc(F)ccc1F (stereo not drawn) was -0.4387%.
Result for CC[S+]([O-])CC(=O)NCCc1nc2c(s1)CCCC2 (stereo not drawn) was 9.631%.
Result for CCc1noc(C)c1C(=O)N1CCCN(C)CC1 was 4.531%.
Result for NCC(=O)N1CCCC(CCc2ccccc2F)C1 (stereo not drawn) was 66.6%.
Result for COc1ccccc1OCC(C)NS(C)(=O)=O (stereo not drawn) was 8.122%.
Result for CCn1ccnc(NC2CC2)c1=O was 0.41%.
Result for COCc1cc(=O)[nH]c(C(C)(C)N)n1 was -15.63%.
Result for O=C(Nc1ncccn1)OCC(F)(F)F was -3.604%.
Result for CNC(=O)N1CCN(c2cccc(OC)c2)CC1 was -0.9639%.
Result for NCC(O)c1ccc(Cl)c(Cl)c1 (stereo not drawn) was 55.78%.
Result for N#Cc1cc(F)ccc1CN1CC[C@@H](O)C1 was -10.75%.
Result for COCC(C)NC(=O)CSc1nc(N)c2ccsc2n1 (stereo not drawn) was 6.297%.
Result for Nc1ccc(C(=O)NCC2(CO)CCOCC2)cn1 was -9.191%.
Result for CN(Cc1ccncc1)S(=O)(=O)c1ncn(C)c1Cl was 1.2%.
Result for CC(C)(C)C(=O)CCN1CCCCC1 was 90.86%.
Result for CC(C)(N)Cc1nc2ccccc2[nH]1 was 4.294%.
Result for NCCNC(=O)CCCc1ccccc1 was -4.895%.

The last 2 entries again:

SMILES	Percent Effect
CC(C)(N)Cc1nc2ccccc2[nH]1	4.294%
NCCNC(=O)CCCc1ccccc1	-4.895%

Data taken from ChEMBL document CHEMBL3988442, “University of Dundee, Small-Polar-MMV Screening Library” (2021).